PubChem BioAssay AID1508588 – Peter MacCallum Cancer Centre – 2020
Assay: 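Genome-wide search for knock-downs that heighten vemurafenib action in melanoma cells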 (primary screen). Cells: human WM266.4 melanoma cells (BRAF V600 mutant). Knock-down reagent: siRNA pool against human genes, 40 nM. Time to read-out: 96 h from transfection to read-out. Conditions: vemurafenib 300 nM (about IC25), added 48 h after transfection, for 48 h; comparison arm got DMSO vehicle only. Read-out: 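Cell gain (DAPI nuclei at end minus before drug, mean of two replicates) and medium lactate by absorbance per cell, both as ratio to non-targeting siRNA, also grouped into fold-change classes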. Direction: cell gain with vemurafenib: higher = more cell gain than with non-targeting siRNA; lactate per cell with vemurafenib: higher = more lactate made per cell. Active means: 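Enhancement is called by pairing each knock-down's vehicle-arm and drug-arm fold-change classes for viability or glycolysis; which class combinations qualify is not given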. Meaning of the calls: active = enhances vemurafenib effect; inactive = no enhancement seen.
The whole screen tested about 18,000 reagents; shown is a part drawn at random. Of all reagents, 790 (4.4%) are marked active. 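Calls rest on a combination of fold-change classes in drug and vehicle arms, not all shown here.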 Some reagents were tested in more than one well and are listed for each. Reagent sequences are not shown.

LEMD2 (LEM domain nuclear envelope protein 2) | cell gain with vemurafenib: 1.16; lactate per cell with vemurafenib: 0.4; activity call: active
PROZ (protein Z, vitamin K dependent plasma glycoprotein) | cell gain with vemurafenib: 1.04; lactate per cell with vemurafenib: 0.67; activity call: inactive
STX16 (syntaxin 16) | cell gain with vemurafenib: 0.68; lactate per cell with vemurafenib: 0.71; activity call: inactive
PABIR1 | cell gain with vemurafenib: 0.84; lactate per cell with vemurafenib: 0.72; activity call: inactive
CCN1 (cellular communication network factor 1) | cell gain with vemurafenib: 0.91; lactate per cell with vemurafenib: 0.62; activity call: inactive
CDH6 (cadherin 6) | cell gain with vemurafenib: 0.92; lactate per cell with vemurafenib: 1.04; activity call: inactive
CIMIP7 (ciliary microtubule inner protein 7) | cell gain with vemurafenib: 0.82; lactate per cell with vemurafenib: 0.65; activity call: inactive
LDLRAD4 (low density lipoprotein receptor class A domain containing 4) | cell gain with vemurafenib: 0.46; lactate per cell with vemurafenib: 1.03; activity call: inactive
PPM1A (protein phosphatase, Mg2+/Mn2+ dependent 1A) | cell gain with vemurafenib: 0.86; lactate per cell with vemurafenib: 1.24; activity call: inactive
HCK (HCK proto-oncogene, Src family tyrosine kinase) | cell gain with vemurafenib: 1.06; lactate per cell with vemurafenib: 0.62; activity call: inactive
RIC8B (RIC8 guanine nucleotide exchange factor B) | cell gain with vemurafenib: 0.45; lactate per cell with vemurafenib: 1.16; activity call: inactive
VSNL1 (visinin like 1) | cell gain with vemurafenib: 0.65; lactate per cell with vemurafenib: 0.84; activity call: inactive
HDGFL2 (HDGF like 2) | cell gain with vemurafenib: 0.49; lactate per cell with vemurafenib: 1.1; activity call: inactive
PRKDC (protein kinase, DNA-activated, catalytic subunit) | cell gain with vemurafenib: 0.26; lactate per cell with vemurafenib: 1.29; activity call: inactive

The list goes on (2 carried over from the part before).
HDGFL2 (HDGF like 2) | cell gain with vemurafenib: 0.49; lactate per cell with vemurafenib: 1.1; activity call: inactive
PRKDC (protein kinase, DNA-activated, catalytic subunit) | cell gain with vemurafenib: 0.26; lactate per cell with vemurafenib: 1.29; activity call: inactive
QTMAN (queuosine-tRNA mannosyltransferase) | cell gain with vemurafenib: 0.39; lactate per cell with vemurafenib: 0.55; activity call: inactive
HLA-DRB1 (major histocompatibility complex, class II, DR beta 1) | cell gain with vemurafenib: 1.04; lactate per cell with vemurafenib: 1.84; activity call: inactive
TAS2R43 (taste 2 receptor member 43) | cell gain with vemurafenib: 0.42; lactate per cell with vemurafenib: 0.77; activity call: inactive
VIPAS39 | cell gain with vemurafenib: 0.82; lactate per cell with vemurafenib: 1.36; activity call: inactive
NAA38 (N-alpha-acetyltransferase 38, NatC auxiliary subunit) | cell gain with vemurafenib: 0; lactate per cell with vemurafenib: 0; activity call: inactive
POLR3C (RNA polymerase III subunit C) | cell gain with vemurafenib: 0.77; lactate per cell with vemurafenib: 0.67; activity call: inactive
NIBAN3 (niban apoptosis regulator 3) | cell gain with vemurafenib: 0.72; lactate per cell with vemurafenib: 0.58; activity call: inactive
SLAMF9 (SLAM family member 9) | cell gain with vemurafenib: 0.92; lactate per cell with vemurafenib: 0.9; activity call: inactive
ZNF547 (zinc finger protein 547) | cell gain with vemurafenib: -0.15; lactate per cell with vemurafenib: 0.89; activity call: inactive
SPCS3 (signal peptidase complex subunit 3) | cell gain with vemurafenib: 0.49; lactate per cell with vemurafenib: 0.24; activity call: inactive
FANCE (FA complementation group E) | cell gain with vemurafenib: 0.5; lactate per cell with vemurafenib: 1.84; activity call: inactive
TRIM6-TRIM34 (TRIM6-TRIM34 readthrough) | cell gain with vemurafenib: 1.06; lactate per cell with vemurafenib: 0.6; activity call: inactive
FBXW9 (F-box and WD repeat domain containing 9) | cell gain with vemurafenib: 0.65; lactate per cell with vemurafenib: 0.52; activity call: inactive
KRTAP19-6 (keratin associated protein 19-6) | cell gain with vemurafenib: 0.28; lactate per cell with vemurafenib: 0.86; activity call: inactive
SREBF2 (sterol regulatory element binding transcription factor 2) | cell gain with vemurafenib: 0.44; lactate per cell with vemurafenib: 0.9; activity call: inactive
CPLANE1 (ciliogenesis and planar polarity effector complex subunit 1) | cell gain with vemurafenib: 0.17; lactate per cell with vemurafenib: 0.38; activity call: active
FBXW2 (F-box and WD repeat domain containing 2) | cell gain with vemurafenib: 0.13; lactate per cell with vemurafenib: 2.09; activity call: inactive
FSD1 (fibronectin type III and SPRY domain containing 1) | cell gain with vemurafenib: 0.62; lactate per cell with vemurafenib: 0.62; activity call: inactive
CCL25 (C-C motif chemokine ligand 25) | cell gain with vemurafenib: 0.42; lactate per cell with vemurafenib: 1.33; activity call: inactive
COL18A1-AS1 (COL18A1 antisense RNA 1) | cell gain with vemurafenib: 0.18; lactate per cell with vemurafenib: 1.36; activity call: inactive
SLC39A11 | cell gain with vemurafenib: 0.12; lactate per cell with vemurafenib: 0.56; activity call: inactive
S100A1 (S100 calcium binding protein A1) | cell gain with vemurafenib: 0.14; lactate per cell with vemurafenib: 2.02; activity call: inactive
TRAM1L1 (translocation associated membrane protein 1 like 1) | cell gain with vemurafenib: 0.69; lactate per cell with vemurafenib: 0.94; activity call: inactive
AKT3 (AKT serine/threonine kinase 3) | cell gain with vemurafenib: 0.33; lactate per cell with vemurafenib: 1.6; activity call: inactive
HTR3A (5-hydroxytryptamine receptor 3A) | cell gain with vemurafenib: 0.27; lactate per cell with vemurafenib: 1.2; activity call: inactive
HTR3A (5-hydroxytryptamine receptor 3A) | cell gain with vemurafenib: 0.35; lactate per cell with vemurafenib: 1.61; activity call: inactive
